Results of single-concentration screens

Sequences of proteins named here, by UniProt entry; tags and fusion partners are left off. Residues count along the entry.
UniProt I6X8D2, whole entry: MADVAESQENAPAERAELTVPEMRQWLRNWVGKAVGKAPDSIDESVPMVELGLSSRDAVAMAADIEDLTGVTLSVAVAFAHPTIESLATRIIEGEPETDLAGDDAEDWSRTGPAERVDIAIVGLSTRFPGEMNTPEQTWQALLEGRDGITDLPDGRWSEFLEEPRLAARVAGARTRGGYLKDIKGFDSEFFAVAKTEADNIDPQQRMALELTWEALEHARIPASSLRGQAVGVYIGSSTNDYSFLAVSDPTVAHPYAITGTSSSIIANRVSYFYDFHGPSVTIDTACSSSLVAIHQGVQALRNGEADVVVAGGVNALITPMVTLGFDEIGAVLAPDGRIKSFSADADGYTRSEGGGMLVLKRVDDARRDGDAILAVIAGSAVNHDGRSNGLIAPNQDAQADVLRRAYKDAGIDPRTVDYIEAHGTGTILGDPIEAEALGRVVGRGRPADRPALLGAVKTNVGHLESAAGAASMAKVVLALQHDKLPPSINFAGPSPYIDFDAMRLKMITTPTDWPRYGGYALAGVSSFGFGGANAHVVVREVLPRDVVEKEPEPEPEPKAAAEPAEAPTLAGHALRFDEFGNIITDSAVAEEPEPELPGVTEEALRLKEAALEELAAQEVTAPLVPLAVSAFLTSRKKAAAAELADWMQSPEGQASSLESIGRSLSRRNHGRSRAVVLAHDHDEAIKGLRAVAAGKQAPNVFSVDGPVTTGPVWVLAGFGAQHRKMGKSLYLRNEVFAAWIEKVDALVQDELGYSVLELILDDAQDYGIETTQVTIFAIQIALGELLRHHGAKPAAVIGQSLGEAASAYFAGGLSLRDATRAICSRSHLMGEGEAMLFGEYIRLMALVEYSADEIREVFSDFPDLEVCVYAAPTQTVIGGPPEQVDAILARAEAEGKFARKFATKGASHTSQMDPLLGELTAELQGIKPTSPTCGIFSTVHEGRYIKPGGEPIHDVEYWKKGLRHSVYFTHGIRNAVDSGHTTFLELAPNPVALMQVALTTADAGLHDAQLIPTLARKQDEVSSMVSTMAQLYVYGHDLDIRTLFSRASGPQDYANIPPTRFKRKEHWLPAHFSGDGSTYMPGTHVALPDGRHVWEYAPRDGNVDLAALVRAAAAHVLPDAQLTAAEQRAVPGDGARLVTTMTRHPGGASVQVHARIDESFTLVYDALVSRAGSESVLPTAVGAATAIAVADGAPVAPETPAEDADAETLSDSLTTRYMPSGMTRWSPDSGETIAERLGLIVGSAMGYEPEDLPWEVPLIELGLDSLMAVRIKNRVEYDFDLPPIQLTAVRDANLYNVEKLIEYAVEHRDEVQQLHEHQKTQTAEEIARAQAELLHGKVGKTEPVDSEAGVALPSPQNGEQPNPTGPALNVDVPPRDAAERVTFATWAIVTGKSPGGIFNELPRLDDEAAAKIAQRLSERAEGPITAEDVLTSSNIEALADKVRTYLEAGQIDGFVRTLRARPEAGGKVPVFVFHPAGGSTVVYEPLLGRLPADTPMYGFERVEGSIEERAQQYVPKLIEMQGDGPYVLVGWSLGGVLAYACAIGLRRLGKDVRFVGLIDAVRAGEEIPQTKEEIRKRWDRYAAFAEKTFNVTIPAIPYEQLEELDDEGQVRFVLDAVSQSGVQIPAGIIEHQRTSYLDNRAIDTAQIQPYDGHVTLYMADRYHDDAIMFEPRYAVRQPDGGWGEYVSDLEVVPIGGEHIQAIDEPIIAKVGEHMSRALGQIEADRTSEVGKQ
UniProt A4I591, 1-473: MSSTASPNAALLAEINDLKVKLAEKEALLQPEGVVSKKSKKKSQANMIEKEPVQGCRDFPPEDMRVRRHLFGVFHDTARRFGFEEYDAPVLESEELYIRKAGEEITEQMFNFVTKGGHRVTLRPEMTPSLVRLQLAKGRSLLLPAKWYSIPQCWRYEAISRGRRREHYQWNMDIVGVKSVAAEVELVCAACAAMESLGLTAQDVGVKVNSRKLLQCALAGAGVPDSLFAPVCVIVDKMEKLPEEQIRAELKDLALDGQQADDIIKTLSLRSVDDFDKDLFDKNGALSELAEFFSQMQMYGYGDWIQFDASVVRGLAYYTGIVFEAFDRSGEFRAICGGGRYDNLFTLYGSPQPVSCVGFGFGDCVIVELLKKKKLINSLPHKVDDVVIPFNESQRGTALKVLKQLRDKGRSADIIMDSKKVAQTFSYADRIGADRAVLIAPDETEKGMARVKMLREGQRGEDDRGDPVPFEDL

Data taken from ChEMBL document CHEMBL3988442, “University of Dundee, Small-Polar-MMV Screening Library” (2021).

Leishmania in macrophages: 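Cell assay of Leishmania donovani living inside macrophages; the read-out is not stated. Concentration: 30 µM. Direction is inferred from retests: higher values go with stronger inhibition. Size under these conditions: about 69,000 compounds, about 1,000 of them at 50% or above in at least one test.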
Pks13 thioesterase: 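Enzyme assay of the thioesterase domain of polyketide synthase 13; the read-out is not stated. Target: Polyketide synthase Pks13, Mycobacterium tuberculosis (UniProt I6X8D2). Concentration: 30 µM. Higher reads as stronger inhibition (inferred from which compounds were picked for retests). About 67,000 compounds were tested under these conditions; 0.46% (about 300) showed 50% or more at least once.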
LiHisRS: 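Enzyme assay of histidyl-tRNA synthetase; the read-out is not stated. Target: Histidine-tRNA ligase, Leishmania infantum (UniProt A4I591). Tested at 30 µM. Direction is inferred from retests: higher values go with stronger inhibition. The assay is labelled LdHisRS but filed under L. infantum. About 69,000 compounds were tested under these conditions; 0.6% (about 410) showed 50% or more at least once.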

Values are the deposited “Percent Effect”, in %. The record does not define 0% and 100%; most values in the screen are far below 50% and negative numbers occur (in some assays of this library far below -100). The compounds are a random part of those screened. Two or more numbers in one place are separate tests of the same structure; such repeats can differ widely.

For C[C@@H]1CN(CC(=O)NCc2ccccn2)C[C@]1(C)O the result was Leishmania in macrophages: 15.14%; Pks13 thioesterase: -9.681%; LiHisRS: 8.85%. Result for CSCC[C@@H](CO)NC(=O)c1ccc2nc(NS(C)(=O)=O)sc2c1 was Leishmania in macrophages: -13.25%; Pks13 thioesterase: -8.996%; LiHisRS: 6.522%. [H][C@@]12COC[C@@H](C(=O)NC)[C@]1([H])CN(C(=O)c1cccc(OC)c1)C2 gave Leishmania in macrophages: -11.57% & -0.7634%. For O=c1c(-c2ccnc(N3CCC[C@H]3CO)n2)cnc2sccn12 the result was Leishmania in macrophages: 22.02% & 4.592%; Pks13 thioesterase: 47.63%; LiHisRS: 25.71%. Result for CC(C)(C)n1ncc2c(=O)[nH]c(NC3CC=CC3)nc21 was Leishmania in macrophages: 26.22%; Pks13 thioesterase: -7.488%; LiHisRS: 14.29%. With CN(C)S(=O)(=O)N1C[C@H]2CCC[C@@]2(COCc2cccnc2)C1 the screen gave Pks13 thioesterase: -33.96%; LiHisRS: 5.263%. For O=C(O)C(F)(F)F.[H][C@@]12CN(CC3CCCC3)CCO[C@]1([H])CN(C(=O)C1CC(F)(F)C1)C2 the result was Leishmania in macrophages: 44.51%.

COCC(=O)N[C@H](C(=O)NC(C)c1cccc(C)c1C)C(C)C (some centres undefined) gave Leishmania in macrophages: -12.96%; Pks13 thioesterase: -14.08%; LiHisRS: -33.33%. For CSC(C)C(=O)N1CCN(CCO)CC1 (centres undefined) the result was Leishmania in macrophages: 28.36%; Pks13 thioesterase: -10.05%; LiHisRS: 12.82%. With Cc1ccnn1CCC(=O)N1CCCC[C@@]2(C)[C@@H]1CCC(=O)N2C the screen gave Pks13 thioesterase: 1.179%; LiHisRS: 14.29%. CC1CN(C(=O)NCCn2ccnc2)CCO1 (centres undefined) gave Leishmania in macrophages: -10.58%; Pks13 thioesterase: -31.12%; LiHisRS: 5.128%. For [H][C@@]12CS(=O)(=O)C[C@]1([H])N(Cc1ccc(OC)c(F)c1)CCN2C(=O)N(C)C the result was Leishmania in macrophages: -22.48%. For O=C(O)C(F)(F)F.c1cnn(Cc2nnc3n2CCCN(CC2CCOCC2)C3)c1 the result was Leishmania in macrophages: -32.18%. Result for OC[C@H]1CN(Cc2c(Cl)cncc2Cl)C[C@H]1CN1CCCCCC1 was Leishmania in macrophages: 4.687%; Pks13 thioesterase: -7.258%; LiHisRS: 9.211%.

For [H][C@@]12CCCO[C@]1([H])[C@H](NS(C)(=O)=O)CN(Cc1ccccc1)C2 the result was Leishmania in macrophages: 16.48%. CC(Cc1c(F)cccc1F)NC(=O)NCc1ncnn1C (centres undefined) gave Leishmania in macrophages: -19.36%; Pks13 thioesterase: -30.98%; LiHisRS: -1.667%. CNC(=O)c1cnn2c(C3CCCN3C)ccnc12 (centres undefined) read Leishmania in macrophages: -0.3512%; Pks13 thioesterase: -8.649%; LiHisRS: 2.837%. With Cc1nn(C)c(Cl)c1C1CCCN1Cc1nc(-c2ccco2)no1 (centres undefined) the screen gave Leishmania in macrophages: 14.01%; Pks13 thioesterase: -9.185%; LiHisRS: 5.357%. Cc1cc(CNc2ccnn2C)ccc1-n1cncn1 read Leishmania in macrophages: 26.8%; Pks13 thioesterase: -26.68%; LiHisRS: 15.38%. For COCC(=O)N1C[C@H]2CCCC(OCc3cccnc3)[C@H]2C1 (some centres undefined) the result was Pks13 thioesterase: 1.48%; LiHisRS: 20%. For CN1CCCC(c2ccc(N3CCOCC3)cn2)C1.Cl (centres undefined) the result was Leishmania in macrophages: 14.21%.

OCCc1ncnn1Cc1cccc(Cl)c1 gave Leishmania in macrophages: -36.39%; Pks13 thioesterase: -18.8%; LiHisRS: -3.54%. Result for O=C(O)C(F)(F)F.[H][C@@]12CCCO[C@]1([H])[C@@H](Oc1ccccn1)CN2C(=O)c1ccnnc1 was Leishmania in macrophages: -2.578%. For CSc1nccc(N2CCCC(c3nccn3C(C)C)C2)n1 (centres undefined) the result was Leishmania in macrophages: -44.2%; Pks13 thioesterase: 4.2%; LiHisRS: 2.083%. Result for N[C@H]1CC[C@@H](n2cc(C(=O)NC3COc4ccccc43)nn2)CC1 (some centres undefined) was Leishmania in macrophages: 19.12%; Pks13 thioesterase: -1.109%; LiHisRS: 6.557%. Result for Cc1cnc(NCC(C)(C)N2CCCCC2)nc1 was Leishmania in macrophages: 23.72%; Pks13 thioesterase: -16.03%; LiHisRS: 6%. Cc1nc(C2NC3(CCCC3)C(=O)N2CC2CC2)cs1 (centres undefined) gave Leishmania in macrophages: 28.57%; Pks13 thioesterase: -17.98%; LiHisRS: 7.08%. O=C(O)c1cc(-c2cn[nH]c2)cc(S(=O)(=O)N2CCSCC2)c1 read Leishmania in macrophages: -12.12%; Pks13 thioesterase: -32.58%; LiHisRS: 22.22%.

COc1cccc(CNC(CN2CCN(C)CC2)c2ccccc2)c1 (centres undefined) gave Leishmania in macrophages: 76.19%; Pks13 thioesterase: -16.79%; LiHisRS: 9.434%. c1cnn(CC2CCN(c3nc(C4CC4)nc4c3CCNCC4)CC2)c1 gave Leishmania in macrophages: -43.51%; Pks13 thioesterase: 3.428%; LiHisRS: 3.333%. CCOCC1CN(C(=O)Cc2ccccn2)Cc2cnn(C)c21 (centres undefined) gave Pks13 thioesterase: -11.42%; LiHisRS: 9.722%. Result for CS(=O)(=O)NCCC(=O)N1CCC(Cc2ccc(CO)cc2)C1 (centres undefined) was Leishmania in macrophages: 10.44%; Pks13 thioesterase: -29.33%; LiHisRS: 0%. Result for O=C(NCc1ccc(Cl)cc1)C1CCCN(c2ccc3nncn3n2)C1 (centres undefined) was Leishmania in macrophages: -10.57%; Pks13 thioesterase: 1.262%; LiHisRS: 12.99%. COc1ccccc1CCNC(=O)N1CCCC(c2nncn2C)C1 (centres undefined) gave Leishmania in macrophages: -15.92%; Pks13 thioesterase: -4.838%; LiHisRS: 13.21%. Cc1nc(-c2ccnn2C)cc(C2CCCN(S(C)(=O)=O)C2)n1 (centres undefined) read Leishmania in macrophages: 5.816%; Pks13 thioesterase: -8.66%; LiHisRS: 12.59%.

With O=C(CN(Cc1cccs1)C1CCS(=O)(=O)C1)NC1CCCCC1 (centres undefined) the screen gave Leishmania in macrophages: -7.23%; LiHisRS: -7.042%. For CCCc1nc(N2CCCC(CCOC)C2)c2cnn(C)c2n1 (centres undefined) the result was Leishmania in macrophages: 41.8%; Pks13 thioesterase: 23.55%; LiHisRS: -1.099%. O=C(O)C(F)(F)F.[H][C@@]12CCCO[C@]1([H])[C@H](OCc1cccnc1)CN2C(=O)C1CC=CC1 gave Leishmania in macrophages: 19.63%.

Once more, the final 3:

For O=C(CN(Cc1cccs1)C1CCS(=O)(=O)C1)NC1CCCCC1 (centres undefined) the result was Leishmania in macrophages: -7.23%; LiHisRS: -7.042%.
For CCCc1nc(N2CCCC(CCOC)C2)c2cnn(C)c2n1 (centres undefined) the result was Leishmania in macrophages: 41.8%; Pks13 thioesterase: 23.55%; LiHisRS: -1.099%.
For O=C(O)C(F)(F)F.[H][C@@]12CCCO[C@]1([H])[C@H](OCc1cccnc1)CN2C(=O)C1CC=CC1 the result was Leishmania in macrophages: 19.63%.